From the supplement of paper PMC12823440, “Inhibitors supercharge kinase turnover through native proteolytic circuits” (Nature, 2025)
The other results are listed elsewhere or left out. Hit calls seldom repeat between salt and free forms of one compound.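 In K562 cells expressing nanoluciferase-fused kinases, luminescence was recorded at 4 h intervals between 2 and 18 h, normalized as percent of control with DMSO at 100% and a positive control at 0%. A significant (2 sigma) signal drop marks a time point as decreased. The authors' rule for a hit is not shown and takes in more than the number of time points.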

Amino acid sequences for entries named in this document (tags omitted).
UniProt P28482, whole entry: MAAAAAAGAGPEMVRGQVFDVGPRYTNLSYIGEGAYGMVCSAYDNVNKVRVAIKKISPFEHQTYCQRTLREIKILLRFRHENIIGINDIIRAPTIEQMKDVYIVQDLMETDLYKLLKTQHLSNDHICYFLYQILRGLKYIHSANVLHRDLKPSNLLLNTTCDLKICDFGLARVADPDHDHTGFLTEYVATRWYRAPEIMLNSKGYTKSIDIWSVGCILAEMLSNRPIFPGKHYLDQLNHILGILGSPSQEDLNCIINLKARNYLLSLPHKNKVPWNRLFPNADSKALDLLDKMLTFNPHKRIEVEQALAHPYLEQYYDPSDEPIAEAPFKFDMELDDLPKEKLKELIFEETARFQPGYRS
UniProt P49137, whole entry, looked up: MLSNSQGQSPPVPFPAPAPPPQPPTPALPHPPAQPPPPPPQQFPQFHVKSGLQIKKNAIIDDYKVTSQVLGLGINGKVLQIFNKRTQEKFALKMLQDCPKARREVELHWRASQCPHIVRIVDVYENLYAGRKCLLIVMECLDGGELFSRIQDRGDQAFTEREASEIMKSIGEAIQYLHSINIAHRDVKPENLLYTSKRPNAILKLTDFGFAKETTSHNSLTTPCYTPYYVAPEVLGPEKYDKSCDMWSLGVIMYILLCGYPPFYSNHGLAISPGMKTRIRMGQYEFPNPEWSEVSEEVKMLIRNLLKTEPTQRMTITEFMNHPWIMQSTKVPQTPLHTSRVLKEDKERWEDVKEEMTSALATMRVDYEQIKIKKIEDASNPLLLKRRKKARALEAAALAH
UniProt P09619, whole entry: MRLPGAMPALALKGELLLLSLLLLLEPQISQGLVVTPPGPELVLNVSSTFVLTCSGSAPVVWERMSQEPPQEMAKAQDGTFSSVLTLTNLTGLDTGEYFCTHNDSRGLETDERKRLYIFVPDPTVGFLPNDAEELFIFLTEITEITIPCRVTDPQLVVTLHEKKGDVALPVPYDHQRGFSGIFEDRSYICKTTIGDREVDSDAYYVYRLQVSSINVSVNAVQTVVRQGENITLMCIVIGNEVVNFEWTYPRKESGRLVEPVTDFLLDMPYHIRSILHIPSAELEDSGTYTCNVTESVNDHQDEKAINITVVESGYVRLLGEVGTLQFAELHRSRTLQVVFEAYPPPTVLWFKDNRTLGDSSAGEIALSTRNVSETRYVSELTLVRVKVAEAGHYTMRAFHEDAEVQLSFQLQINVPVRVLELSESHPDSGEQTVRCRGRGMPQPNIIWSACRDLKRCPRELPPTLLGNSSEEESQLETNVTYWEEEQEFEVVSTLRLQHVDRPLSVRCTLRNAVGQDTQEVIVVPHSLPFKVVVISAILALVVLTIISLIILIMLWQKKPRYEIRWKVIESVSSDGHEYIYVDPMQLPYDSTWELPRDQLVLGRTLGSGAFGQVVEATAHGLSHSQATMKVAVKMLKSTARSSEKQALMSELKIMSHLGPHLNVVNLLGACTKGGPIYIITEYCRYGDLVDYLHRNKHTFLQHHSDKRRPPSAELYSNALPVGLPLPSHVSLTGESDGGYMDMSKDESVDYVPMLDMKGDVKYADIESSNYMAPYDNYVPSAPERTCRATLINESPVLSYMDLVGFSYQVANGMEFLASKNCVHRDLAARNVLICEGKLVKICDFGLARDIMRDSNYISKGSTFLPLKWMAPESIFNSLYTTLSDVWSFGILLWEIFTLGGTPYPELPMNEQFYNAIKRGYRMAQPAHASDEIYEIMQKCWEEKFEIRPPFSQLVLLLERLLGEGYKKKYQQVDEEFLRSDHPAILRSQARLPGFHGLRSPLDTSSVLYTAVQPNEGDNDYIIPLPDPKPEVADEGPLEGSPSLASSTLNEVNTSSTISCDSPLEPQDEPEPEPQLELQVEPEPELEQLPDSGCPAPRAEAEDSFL
UniProt Q15118, whole entry, looked up: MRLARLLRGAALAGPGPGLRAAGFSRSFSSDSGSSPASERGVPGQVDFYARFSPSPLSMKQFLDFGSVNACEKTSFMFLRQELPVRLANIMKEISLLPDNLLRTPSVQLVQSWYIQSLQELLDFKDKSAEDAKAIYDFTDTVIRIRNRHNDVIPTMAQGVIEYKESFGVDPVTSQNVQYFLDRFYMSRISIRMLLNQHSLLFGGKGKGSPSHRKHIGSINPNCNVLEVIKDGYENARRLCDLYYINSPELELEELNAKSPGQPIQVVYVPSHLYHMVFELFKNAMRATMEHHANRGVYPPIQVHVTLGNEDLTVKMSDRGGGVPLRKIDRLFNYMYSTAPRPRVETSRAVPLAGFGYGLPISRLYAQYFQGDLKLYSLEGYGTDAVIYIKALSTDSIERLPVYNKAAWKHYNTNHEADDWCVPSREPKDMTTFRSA
UniProt P42356, whole entry, looked up: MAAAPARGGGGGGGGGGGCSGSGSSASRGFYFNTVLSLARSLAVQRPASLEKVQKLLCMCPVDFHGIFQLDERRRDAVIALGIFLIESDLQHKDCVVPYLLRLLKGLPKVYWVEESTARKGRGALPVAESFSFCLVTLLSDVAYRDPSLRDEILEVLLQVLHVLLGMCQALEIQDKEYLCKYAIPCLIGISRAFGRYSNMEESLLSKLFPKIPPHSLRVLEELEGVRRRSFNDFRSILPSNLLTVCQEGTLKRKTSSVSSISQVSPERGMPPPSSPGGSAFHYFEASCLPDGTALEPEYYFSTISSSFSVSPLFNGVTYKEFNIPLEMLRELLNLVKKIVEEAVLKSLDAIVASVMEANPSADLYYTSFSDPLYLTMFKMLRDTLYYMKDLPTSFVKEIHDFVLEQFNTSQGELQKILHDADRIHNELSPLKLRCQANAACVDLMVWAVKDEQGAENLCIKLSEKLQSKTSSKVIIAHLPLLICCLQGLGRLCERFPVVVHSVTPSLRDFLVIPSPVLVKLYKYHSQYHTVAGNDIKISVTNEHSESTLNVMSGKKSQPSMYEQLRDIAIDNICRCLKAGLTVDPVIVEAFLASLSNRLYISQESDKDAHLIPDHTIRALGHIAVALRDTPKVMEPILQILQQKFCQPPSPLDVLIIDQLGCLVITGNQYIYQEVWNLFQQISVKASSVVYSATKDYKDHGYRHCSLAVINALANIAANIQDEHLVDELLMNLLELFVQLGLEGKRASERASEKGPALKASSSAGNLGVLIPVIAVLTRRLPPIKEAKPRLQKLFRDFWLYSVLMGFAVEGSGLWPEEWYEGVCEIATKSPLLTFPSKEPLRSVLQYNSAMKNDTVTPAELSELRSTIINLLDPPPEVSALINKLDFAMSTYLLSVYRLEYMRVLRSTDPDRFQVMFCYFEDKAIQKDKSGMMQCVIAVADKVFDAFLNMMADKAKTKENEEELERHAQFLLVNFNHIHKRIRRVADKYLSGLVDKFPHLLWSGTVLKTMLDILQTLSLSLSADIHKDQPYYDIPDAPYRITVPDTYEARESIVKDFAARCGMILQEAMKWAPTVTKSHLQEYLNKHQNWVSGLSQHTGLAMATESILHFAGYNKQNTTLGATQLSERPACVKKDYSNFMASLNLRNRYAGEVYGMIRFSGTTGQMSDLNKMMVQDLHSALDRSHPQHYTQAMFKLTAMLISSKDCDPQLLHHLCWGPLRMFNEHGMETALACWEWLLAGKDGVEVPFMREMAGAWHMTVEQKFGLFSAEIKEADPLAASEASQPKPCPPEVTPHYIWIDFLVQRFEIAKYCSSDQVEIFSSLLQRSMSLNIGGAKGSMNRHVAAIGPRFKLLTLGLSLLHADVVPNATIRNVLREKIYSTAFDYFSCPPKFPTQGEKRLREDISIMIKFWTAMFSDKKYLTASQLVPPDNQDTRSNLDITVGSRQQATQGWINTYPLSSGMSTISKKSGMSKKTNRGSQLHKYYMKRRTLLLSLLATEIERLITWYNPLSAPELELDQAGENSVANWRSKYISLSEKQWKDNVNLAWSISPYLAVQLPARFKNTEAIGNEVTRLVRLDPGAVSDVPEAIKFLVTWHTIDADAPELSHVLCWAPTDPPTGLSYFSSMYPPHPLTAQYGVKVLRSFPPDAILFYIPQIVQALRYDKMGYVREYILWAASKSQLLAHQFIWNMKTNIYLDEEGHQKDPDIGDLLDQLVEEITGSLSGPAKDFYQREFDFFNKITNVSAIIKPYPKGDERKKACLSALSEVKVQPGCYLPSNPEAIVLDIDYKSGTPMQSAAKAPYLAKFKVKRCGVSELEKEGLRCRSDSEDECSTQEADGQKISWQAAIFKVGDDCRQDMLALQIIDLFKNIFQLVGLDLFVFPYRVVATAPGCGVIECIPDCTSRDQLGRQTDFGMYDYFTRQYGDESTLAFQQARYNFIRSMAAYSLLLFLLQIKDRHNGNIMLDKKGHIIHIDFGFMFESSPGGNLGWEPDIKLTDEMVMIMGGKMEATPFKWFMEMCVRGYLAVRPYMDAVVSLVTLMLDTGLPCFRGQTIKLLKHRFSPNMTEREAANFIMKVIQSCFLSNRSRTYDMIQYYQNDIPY
UniProt Q05397, whole entry, looked up: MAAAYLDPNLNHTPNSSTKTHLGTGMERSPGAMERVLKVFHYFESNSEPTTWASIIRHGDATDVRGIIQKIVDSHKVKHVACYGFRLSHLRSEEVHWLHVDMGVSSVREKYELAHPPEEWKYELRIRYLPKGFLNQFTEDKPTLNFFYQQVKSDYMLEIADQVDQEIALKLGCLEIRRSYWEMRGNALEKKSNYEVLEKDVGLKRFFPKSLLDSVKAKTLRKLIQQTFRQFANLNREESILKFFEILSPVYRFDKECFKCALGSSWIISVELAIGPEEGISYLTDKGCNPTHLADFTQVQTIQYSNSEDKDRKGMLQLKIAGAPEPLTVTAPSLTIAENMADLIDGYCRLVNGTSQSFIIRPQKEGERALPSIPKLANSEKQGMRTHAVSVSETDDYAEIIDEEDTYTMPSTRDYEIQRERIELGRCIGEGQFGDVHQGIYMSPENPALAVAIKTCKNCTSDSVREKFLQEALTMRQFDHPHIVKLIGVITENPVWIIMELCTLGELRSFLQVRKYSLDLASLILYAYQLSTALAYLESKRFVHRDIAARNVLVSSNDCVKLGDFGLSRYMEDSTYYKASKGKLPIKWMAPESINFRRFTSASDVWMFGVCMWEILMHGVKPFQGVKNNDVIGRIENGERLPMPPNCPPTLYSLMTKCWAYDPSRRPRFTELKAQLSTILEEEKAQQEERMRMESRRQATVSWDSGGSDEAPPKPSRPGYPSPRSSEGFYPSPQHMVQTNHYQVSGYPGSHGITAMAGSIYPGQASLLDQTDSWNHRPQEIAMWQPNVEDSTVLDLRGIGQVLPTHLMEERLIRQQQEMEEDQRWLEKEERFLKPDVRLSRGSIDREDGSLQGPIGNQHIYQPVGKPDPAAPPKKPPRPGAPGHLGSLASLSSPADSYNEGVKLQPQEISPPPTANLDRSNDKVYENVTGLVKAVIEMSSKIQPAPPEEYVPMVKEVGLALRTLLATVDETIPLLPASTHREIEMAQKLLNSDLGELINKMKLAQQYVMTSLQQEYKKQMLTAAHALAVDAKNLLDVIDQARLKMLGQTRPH
UniProt Q14289, whole entry, looked up: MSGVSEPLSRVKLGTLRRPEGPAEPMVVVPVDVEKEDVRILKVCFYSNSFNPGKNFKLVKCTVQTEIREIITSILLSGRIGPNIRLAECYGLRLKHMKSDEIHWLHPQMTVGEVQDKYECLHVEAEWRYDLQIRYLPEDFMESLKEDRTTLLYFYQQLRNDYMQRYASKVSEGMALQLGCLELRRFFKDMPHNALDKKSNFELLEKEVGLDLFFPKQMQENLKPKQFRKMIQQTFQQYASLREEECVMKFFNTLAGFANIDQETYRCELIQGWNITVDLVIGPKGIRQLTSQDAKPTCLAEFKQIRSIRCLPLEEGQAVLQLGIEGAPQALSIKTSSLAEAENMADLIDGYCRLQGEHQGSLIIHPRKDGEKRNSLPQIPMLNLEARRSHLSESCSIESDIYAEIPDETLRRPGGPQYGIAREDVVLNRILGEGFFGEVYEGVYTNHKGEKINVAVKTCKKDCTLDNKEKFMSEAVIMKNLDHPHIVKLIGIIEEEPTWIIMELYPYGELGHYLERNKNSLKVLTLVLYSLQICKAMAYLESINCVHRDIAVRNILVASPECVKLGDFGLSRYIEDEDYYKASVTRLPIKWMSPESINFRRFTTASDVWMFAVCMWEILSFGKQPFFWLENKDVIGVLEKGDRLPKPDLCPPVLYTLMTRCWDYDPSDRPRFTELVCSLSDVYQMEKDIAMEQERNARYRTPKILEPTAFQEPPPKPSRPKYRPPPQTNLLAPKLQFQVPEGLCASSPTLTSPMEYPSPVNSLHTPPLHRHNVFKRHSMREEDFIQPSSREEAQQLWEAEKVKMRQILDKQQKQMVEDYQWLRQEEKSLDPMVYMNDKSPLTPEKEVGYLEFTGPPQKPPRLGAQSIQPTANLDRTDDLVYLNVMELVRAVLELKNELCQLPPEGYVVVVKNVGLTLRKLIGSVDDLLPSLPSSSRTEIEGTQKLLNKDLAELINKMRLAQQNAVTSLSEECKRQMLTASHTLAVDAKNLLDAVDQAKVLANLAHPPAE

Experiments:
Assay in all cases: kinase-Nluc reporter destabilization hit call (1 = scored as downregulated) (binary); higher = compound decreases kinase abundance
Details in all cases: K562; 2-18 h
MAPK1 = MAPK1 (UniProt P28482)
MAPK4 = MAPK4 (UniProt P31152)
MAPKAPK2 = MAPKAPK2 (UniProt P49137)
MKNK1 = MKNK1 (UniProt Q9BUB5)
NTRK2 = NTRK2 (UniProt Q16620)
NTRK3 = NTRK3 (UniProt Q16288)
PAK4 = PAK4 (UniProt O96013)
PBK = PBK (UniProt Q96KB5)
PDGFRB = PDGFRB (UniProt P09619)
PDK1 = PDK1 (UniProt Q15118)
PDPK1 = PDPK1 (UniProt O15530)
PIK4CA = PIK4CA (UniProt P42356)
PIK4CB = PIK4CB (UniProt Q9UBF8)
PLK1 = PLK1 (UniProt P53350)
PRKAA1 = PRKAA1 (UniProt Q13131)
PRKCA = PRKCA (UniProt P17252)
PTK2 = PTK2 (UniProt Q05397)
PTK2B = PTK2B (UniProt Q14289)
RAF1 = RAF1 (UniProt P04049)
[1] = target: RAF1_S257L (clone: RAF1_mut) (UniProt P04049)

Measured: kinase-Nluc reporter destabilization hit call

COc1cnccc1Nc1nc(-c2nn(Cc3c(F)cc(OCCO)cc3F)c3ccccc23)ncc1OC (10 µM)
inactive: MAPK1 = 0 | MAPK4 = 0 | MAPKAPK2 = 0 | MKNK1 = 0 | NTRK2 = 0 | NTRK3 = 0 | PAK4 = 0 | PBK 0 | PDGFRB 0 | PDK1 = 0 | PDPK1 = 0 | PIK4CA 0 | PIK4CB 0 | PLK1 = 0 | PRKAA1 = 0 | PRKCA 0 | PTK2 = 0 | PTK2B 0 | RAF1 = 0 | [1] 0

COc1nc(-c2cccc3c2OCCO3)ccc1Nc1ccc(CN(C)C)cc1 [RAS inhibitor Abd-7] (10 µM)
inactive: MAPK1 = 0 | MAPK4 = 0 | MAPKAPK2 = 0 | MKNK1 = 0 | NTRK2 = 0 | NTRK3 = 0 | PAK4 = 0 | PBK 0 | PDGFRB 0 | PDK1 = 0 | PDPK1 = 0 | PIK4CA 0 | PIK4CB 0 | PLK1 = 0 | PRKAA1 = 0 | PRKCA 0 | PTK2 = 0 | PTK2B 0 | RAF1 = 0 | [1] 0

CN(C)Cc1cccc(N=C(c2ccccc2)c2c(O)[nH]c3cc(C(=O)N(C)C)ccc23)c1 (10 µM)
inactive: MAPK1 = 0 | MAPK4 = 0 | MAPKAPK2 = 0 | MKNK1 = 0 | NTRK2 = 0 | NTRK3 = 0 | PAK4 = 0 | PBK 0 | PDGFRB 0 | PDK1 = 0 | PDPK1 = 0 | PIK4CA 0 | PIK4CB 0 | PLK1 = 0 | PRKAA1 = 0 | PRKCA 0 | PTK2 = 0 | PTK2B 0 | RAF1 = 0 | [1] 0

COc1cc(N2CCC(O)CC2)ccc1Nc1cc(Nc2ccccc2S(=O)(=O)C(C)C)c2cc[nH]c2n1 (10 µM)
inactive: MAPK1 = 0 | MAPK4 = 0 | MAPKAPK2 = 0 | MKNK1 = 0 | NTRK2 = 0 | NTRK3 = 0 | PAK4 = 0 | PBK 0 | PDGFRB 0 | PDK1 = 0 | PDPK1 = 0 | PIK4CA 0 | PIK4CB 0 | PLK1 = 0 | PRKAA1 = 0 | PRKCA 0 | PTK2 = 0 | PTK2B 0 | RAF1 = 0 | [1] 0

C[C@@H]1COCCN1c1cc(=O)n2c(n1)N(Cc1cncc(Cl)c1)[C@H](C(F)(F)F)CC2 (10 µM)
inactive: MAPK1 = 0 | MAPK4 = 0 | MAPKAPK2 = 0 | MKNK1 = 0 | NTRK2 = 0 | NTRK3 = 0 | PAK4 = 0 | PBK 0 | PDGFRB 0 | PDK1 = 0 | PDPK1 = 0 | PIK4CA 0 | PIK4CB 0 | PLK1 = 0 | PRKAA1 = 0 | PRKCA 0 | PTK2 = 0 | PTK2B 0 | RAF1 = 0 | [1] 0

CC(C)c1ccc(CC(=O)N2CCN(c3ccc(C#N)nn3)CC2)cc1 (10 µM)
inactive: MAPK1 = 0 | MAPK4 = 0 | MAPKAPK2 = 0 | MKNK1 = 0 | NTRK2 = 0 | NTRK3 = 0 | PAK4 = 0 | PBK 0 | PDGFRB 0 | PDK1 = 0 | PDPK1 = 0 | PIK4CA 0 | PIK4CB 0 | PLK1 = 0 | PRKAA1 = 0 | PRKCA 0 | PTK2 = 0 | PTK2B 0 | RAF1 = 0 | [1] 0

COc1ncc(Nc2ncc([C@@H](C)N3CCN(S(C)(=O)=O)CC3)cc2-c2nc(C)nc(N)n2)cc1F (10 µM)
inactive: MAPK1 = 0 | MAPK4 = 0 | MAPKAPK2 = 0 | MKNK1 = 0 | NTRK2 = 0 | NTRK3 = 0 | PAK4 = 0 | PBK 0 | PDGFRB 0 | PDK1 = 0 | PDPK1 = 0 | PIK4CA 0 | PIK4CB 0 | PLK1 = 0 | PRKAA1 = 0 | PRKCA 0 | PTK2 = 0 | PTK2B 0 | RAF1 = 0 | [1] 0

O=C1NC(=O)C(c2cn(-c3ccccc3)nc2-c2ccc(F)cc2)N1 (stereo not given) (10 µM)
inactive: MAPK1 = 0 | MAPK4 = 0 | MAPKAPK2 = 0 | MKNK1 = 0 | NTRK2 = 0 | NTRK3 = 0 | PAK4 = 0 | PBK 0 | PDGFRB 0 | PDK1 = 0 | PDPK1 = 0 | PIK4CA 0 | PIK4CB 0 | PLK1 = 0 | PRKAA1 = 0 | PRKCA 0 | PTK2 = 0 | PTK2B 0 | RAF1 = 0 | [1] 0

CC(C)c1cc(/C=C(\C#N)C(N)=O)cc(C(C)C)c1O (10 µM)
inactive: MAPK1 = 0 | MAPK4 = 0 | MAPKAPK2 = 0 | MKNK1 = 0 | NTRK2 = 0 | NTRK3 = 0 | PAK4 = 0 | PBK 0 | PDGFRB 0 | PDK1 = 0 | PDPK1 = 0 | PIK4CA 0 | PIK4CB 0 | PLK1 = 0 | PRKAA1 = 0 | PRKCA 0 | PTK2 = 0 | PTK2B 0 | RAF1 = 0 | [1] 0
